In patent US20230090487A1:
Substitutions are numbered along the chain they refer to. No constants are given. Whether binding was seen depends on the method and setting. Some binding calls cover weakened binding; strength is not graded here. One block for each binder: values may come before it.

Target: T1, IgE peptide … (SEQ ID NO:35) (human)
T1 sequence (peptide): YQCRVTHPHLPRALM
Assay: Pepscan peptide array, linear and single loop mimics

- binding: binds
B1: hLAAIGE E17 (antibody, human IgG1, kappa, V domains shown)
VH: QVQLVQSGSELKKPGASVKVSCKASGYTFTNYGMNWVRQAPGQGLEWMGWINTYTGEPTYADDFKGRFVFSLDTSVSTAYLQISSLKAEDTAVYYCARGAASHTMDYWGQGTTVTVSS
VL: DIVMTQSPDSLAVSLGERATINCRASQSVSTSSHAYMHWYQQKPGQPPKLLIYYASNLESGVPDRFSGSGSGTDFTLTISSLQAEDVAVYYCQHSWEIPWTFGQGTKLEIKR

- binding: binds
B2: hLAAIGE E59 (antibody, human IgG1, kappa, V domains shown)
VH: B1 VH
VL: B1 VL with A35S
